According to publication PMC3561413 (PLoS ONE, 2013):

Tests used:
[1] = test system: Ba/F3-EPOR VF cells; assay: Cell cycle distribution analysis by flow cytometry (propidium iodide), Ba/F3-EPOR VF; type: cell-based, mouse; conditions: after 24 hours, median value, read-out: concentration giving 50% reduction of the cells in the S-phase compared to untreated cells
Experimental: (§1) Ba/F3-EPOR cells, both wt and VF, HEL and SET2 cells were plated at 2×10^4 in 96-well culture tissue plates with increasing concentrations of the drug(s), in triplicate, and the amount of viable cells was assessed at 48 h using the WST-1 assay (Roche, USA) after normalization to wells containing an equivalent volume of vehicle (DMSO) only. For clonogenic assay, 5×10^3 cells were plated in 0.5% agar in medium supplemented with 10% FBS (plus 1 U/mL EPO in case of Ba/F3-EPOR wt cells); variable amount of the drug(s) (or an equivalent volume of vehicle in control plates) was added once at the beginning of culture. Colonies were enumerated by inverted microscopy after 7 day incubation, in duplicate. Quantification of apoptotic cells was accomplished by flow cytometry using the Annexin-V-FLUOS Staining kit (Roche); at least 20,000 events were acquired. […]
(§2) In panel A, the frequency of cells in the G0/G1, S and M phase of the cell cycle was measured by flow cytometry after propidium iodide staining of Ba/F3-EPOR VF cells that had been exposed to the drugs for 18 h, and expressed as percent change compared to control cells (Ctrl) with vehicle. […] In panel B, the percentage of Annexin V-positive cells was measured in cultures of Ba/F3-EPOR VF cells exposed to varying amount of the drugs for 48 h; percentage was calculated after subtraction of background apoptosis in cells incubated without drug. […]

[2] = test system: SET2 cells; assay: Apoptosis (Annexin V flow cytometry), SET2; type: cell-based, human; conditions: SET2, median
Experimental: (§3) Ba/F3-EPOR cells, both wt and VF, HEL and SET2 cells were plated at 2×10^4 in 96-well culture tissue plates with increasing concentrations of the drug(s), in triplicate, and the amount of viable cells was assessed at 48 h using the WST-1 assay (Roche, USA) after normalization to wells containing an equivalent volume of vehicle (DMSO) only. For clonogenic assay, 5×10^3 cells were plated in 0.5% agar in medium supplemented with 10% FBS (plus 1 U/mL EPO in case of Ba/F3-EPOR wt cells); variable amount of the drug(s) (or an equivalent volume of vehicle in control plates) was added once at the beginning of culture. Colonies were enumerated by inverted microscopy after 7 day incubation, in duplicate. Quantification of apoptotic cells was accomplished by flow cytometry using the Annexin-V-FLUOS Staining kit (Roche); at least 20,000 events were acquired. For cell cycle distribution analysis by flow cytometry, 1×10^6 cells were treated with ethanol 95%, RNase 10 µg/mL and propidium iodide […].

[3] = test system: Ba/F3-EPOR wt cells (JAK2 wild-type); assay: Clonogenic assay in agar, Ba/F3-EPOR wt; type: cell-based, mouse; conditions: read-out: IC50 of colony formation (clonogenic assay)
Experimental: as §3

[4] = test system: Ba/F3-EPOR VF cells (JAK2V617F); assay: Clonogenic assay in agar, Ba/F3-EPOR VF; type: cell-based, mouse; conditions: read-out: IC50 of colony formation (clonogenic assay)
Experimental: as §3

[5] = test system: CD34+ cells from healthy controls; assay: CD34+ proliferation assay (WST-1, 48 h), healthy controls; type: cell-based, human; conditions: read-out: IC50 of CD34+ cell proliferation
Experimental: (§4) To measure the drug-induced inhibition of CD34^+ cell growth, purified cells were plated at 3·10^4 cells/well in IDMEM supplemented with cytokines and variable amounts of the drugs were added. Cell proliferation was evaluated using the WST-1 Assay (Roche, USA) after 48 h and results were normalized to wells containing vehicle only.
(§5) Figure 2 Inhibition of proliferation of CD34^+ cells from PMF patients by mTOR and JAK2 inhibitors. CD34^+ cells from patients with PMF (n = 6) or control subjects (Ctr; n = 5) were plated at 2×10^5/mL in 96-well culture tissue plates with increasing concentrations of the drugs, in triplicate; viable cells were assessed after 48 hrs using the WST-1 assay and normalized to wells containing an equivalent volume of vehicle (DMSO) only.

[6] = test system: CD34+ cells from PMF patients; assay: CD34+ proliferation assay (WST-1, 48 h), PMF patients; type: cell-based, human; conditions: read-out: IC50 of CD34+ cell proliferation
Experimental: as §4, §5

[7] = test system: CFU-GM from PMF patients; assay: Colony assay for hematopoietic progenitors, CFU-GM, PMF patients; type: cell-based, human; conditions: MF (n = 10), day 14; read-out: IC50, CFU-GM colony formation
Experimental: (§6) Figure 3 mTOR and JAK2 inhibitors preferentially suppress colony formation from hematopoietic progenitors of MPN patients as compared to healthy controls. Mononuclear cells from patients with PV or PMF (n = 10 each) or control subjects (n = 10) were plated at 10^5/mL in cytokine-supplemented methylcellulose medium for the growth of erythroid burst-forming unit (BFU-E) and granulocyte-macrophage colony-forming unit (CFU-GM), and CD34^+ cells (5×10^4/mL) were plated in collagen-based medium for megakaryocyte colony-forming unit (CFU-Mk). […] Colonies were enumerated on day 14 and expressed as a percentage of the colonies grown in control plates containing vehicle only.

[8] = test system: EEC from peripheral blood mononuclear cells of PV patients; assay: EEC assay (erythropoietin-independent erythroid colonies), PV patients; conditions: read-out: IC50 of EEC growth, single drug, without EPO, scored at 10 days
[9] = test system: BFU-E from healthy controls; assay: Colony assay for hematopoietic progenitors, BFU-E, healthy controls; type: cell-based, human; conditions: Ctrl (n = 10), day 14; read-out: IC50, BFU-E colony formation
Experimental: as §6

[10] = test system: BFU-E from PMF patients; assay: Colony assay for hematopoietic progenitors, BFU-E, PMF patients; type: cell-based, human; conditions: MF (n = 10), day 14; read-out: IC50, BFU-E colony formation
Experimental: as §6

[11] = test system: CFU-GM from PV patients; assay: Colony assay for hematopoietic progenitors, CFU-GM, PV patients; type: cell-based, human; conditions: PV (n = 10), day 14; read-out: IC50, CFU-GM colony formation
Experimental: as §6

[12] = test system: HEL cells (JAK2V617F mutated); assay: Clonogenic assay in agar, HEL; type: cell-based, human
Experimental: as §3

[13] = test system: CFU-GM from healthy controls; assay: Colony assay for hematopoietic progenitors, CFU-GM, healthy controls; type: cell-based, human; conditions: Ctrl (n = 10), day 14; read-out: IC50, CFU-GM colony formation
Experimental: as §6

[14] = test system: Ba/F3-EPOR VF cells (JAK2V617F); assay: Inhibition of proliferation assay (WST-1, 48 h), Ba/F3-EPOR VF; type: cell-based, mouse; conditions: read-out: IC50 of cell proliferation in the presence of Epo
Experimental: as §3

[15] = test system: BFU-E from PV patients; assay: Colony assay for hematopoietic progenitors, BFU-E, PV patients; type: cell-based, human; conditions: PV (n = 10), day 14; read-out: IC50, BFU-E colony formation
Experimental: as §6

[16] = test system: CFU-Mk from healthy controls; assay: Colony assay for hematopoietic progenitors, CFU-Mk, healthy controls; type: cell-based, human; conditions: Ctrl (n = 10), day 14; read-out: IC50, CFU-Mk colony formation
Experimental: as §6

[17] = test system: SET2 cells; assay: Cell cycle distribution analysis by flow cytometry, SET2; type: cell-based, human; conditions: SET2, median concentration; read-out: concentration giving 50% reduction of cells in the S-phase compared to controls
Experimental: as §3

[18] = test system: CFU-Mk from PV patients; assay: Colony assay for hematopoietic progenitors, CFU-Mk, PV patients; type: cell-based, human; conditions: PV (n = 10), day 14; read-out: IC50, CFU-Mk colony formation
Experimental: as §6

[19] = test system: Ba/F3-EPOR VF cells; assay: Apoptosis (Annexin V flow cytometry), Ba/F3-EPOR VF; type: cell-based, mouse; conditions: 48 h, median, read-out: IC50 for apoptosis (Annexin V positive cells)
Experimental: as §1, §2

For `CC(C)n1nc(-c2cc3cc(O)ccc3[nH]2)c2c(N)ncnc21` [PP242], the IC50 [1] was 1870 nM, the IC50 [2] was 5200 nM and the IC50 [3] was 308 ± 100 nM. The IC50 [4] was 47 ± 12 nM, the IC50 [5] was 2900 nM and the IC50 [6] was 800 ± 200 nM. It also gave an IC50 [7] of 46 ± 20 nM, an IC50 [8] of 1 ± 0.7 nM and an IC50 [9] of 233 ± 50 nM. The IC50 [10] was 38 ± 8 nM, the IC50 [11] was 31 ± 15 nM and the IC50 [12] was 172 ± 59 nM. The IC50 [13] was 148 ± 40 nM, the IC50 [14] was 750 ± 100 nM and the IC50 [15] was 58 ± 18 nM. The IC50 [16] was 13 ± 2 nM, the IC50 [17] was 2700 nM and the IC50 [18] was 3 ± 1 nM. The IC50 [19] was 4000 nM.
